This note sets out measurements from paper PMC2631510.

The chains behind the UniProt entries cited, without tags or fusion partners. Where a name states a change or a piece, a line headed by the entry shows the natural chain unless it says otherwise. A line that says so, or that is headed by a name, gives the form on record, which may keep a tag or linker. Residues count along the entry.
UniProt P25963: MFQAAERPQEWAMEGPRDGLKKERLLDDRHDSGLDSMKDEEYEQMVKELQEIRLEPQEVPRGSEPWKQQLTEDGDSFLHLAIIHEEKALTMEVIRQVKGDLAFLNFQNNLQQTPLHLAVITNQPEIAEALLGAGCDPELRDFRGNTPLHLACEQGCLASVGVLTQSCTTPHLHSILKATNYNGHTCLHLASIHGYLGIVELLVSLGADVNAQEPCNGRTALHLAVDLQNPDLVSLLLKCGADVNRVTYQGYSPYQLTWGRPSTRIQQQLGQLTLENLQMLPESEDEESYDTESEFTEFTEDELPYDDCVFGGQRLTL
UniProt Q04206: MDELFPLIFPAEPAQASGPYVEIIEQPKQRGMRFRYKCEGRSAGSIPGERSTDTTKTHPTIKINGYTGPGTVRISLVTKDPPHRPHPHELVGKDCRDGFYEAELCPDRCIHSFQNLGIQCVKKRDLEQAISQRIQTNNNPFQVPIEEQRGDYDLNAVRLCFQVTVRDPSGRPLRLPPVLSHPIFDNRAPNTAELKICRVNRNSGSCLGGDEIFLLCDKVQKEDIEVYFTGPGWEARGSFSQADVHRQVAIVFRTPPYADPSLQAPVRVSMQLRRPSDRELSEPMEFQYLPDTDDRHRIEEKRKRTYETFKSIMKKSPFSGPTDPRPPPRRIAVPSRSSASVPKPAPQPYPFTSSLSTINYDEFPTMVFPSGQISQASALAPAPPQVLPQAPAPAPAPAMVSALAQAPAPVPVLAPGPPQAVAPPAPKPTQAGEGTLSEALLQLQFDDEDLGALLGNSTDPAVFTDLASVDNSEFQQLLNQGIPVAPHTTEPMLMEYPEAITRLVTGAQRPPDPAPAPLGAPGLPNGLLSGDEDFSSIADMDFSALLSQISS
ΔNH2p65-tag mutant (in Jurkat cells) (Q04206, form named): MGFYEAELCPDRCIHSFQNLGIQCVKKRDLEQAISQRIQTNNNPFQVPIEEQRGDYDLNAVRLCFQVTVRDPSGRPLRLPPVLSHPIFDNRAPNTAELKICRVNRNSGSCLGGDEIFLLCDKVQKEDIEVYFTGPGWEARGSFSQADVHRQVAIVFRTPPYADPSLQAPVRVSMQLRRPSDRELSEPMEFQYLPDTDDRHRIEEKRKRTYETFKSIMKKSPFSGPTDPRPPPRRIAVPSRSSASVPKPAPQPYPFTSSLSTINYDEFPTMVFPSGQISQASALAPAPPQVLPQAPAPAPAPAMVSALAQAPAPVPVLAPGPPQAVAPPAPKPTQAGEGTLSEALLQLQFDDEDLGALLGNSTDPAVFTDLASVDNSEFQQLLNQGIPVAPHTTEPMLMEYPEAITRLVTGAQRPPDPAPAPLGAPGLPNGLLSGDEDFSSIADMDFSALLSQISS
UniProt P19838, residues 1-433: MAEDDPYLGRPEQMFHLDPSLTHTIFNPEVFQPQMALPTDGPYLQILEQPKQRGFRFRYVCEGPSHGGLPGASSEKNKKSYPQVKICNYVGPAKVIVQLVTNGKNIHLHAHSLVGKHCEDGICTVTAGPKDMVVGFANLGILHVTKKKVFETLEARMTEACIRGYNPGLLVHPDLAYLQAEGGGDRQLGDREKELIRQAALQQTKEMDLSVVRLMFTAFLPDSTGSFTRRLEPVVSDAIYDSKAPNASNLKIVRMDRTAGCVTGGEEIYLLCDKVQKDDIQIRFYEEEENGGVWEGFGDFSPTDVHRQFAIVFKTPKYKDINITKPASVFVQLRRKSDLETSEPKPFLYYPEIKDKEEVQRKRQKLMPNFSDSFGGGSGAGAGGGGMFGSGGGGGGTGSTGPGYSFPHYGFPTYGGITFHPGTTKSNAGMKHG
UniProt Q9Z1E3: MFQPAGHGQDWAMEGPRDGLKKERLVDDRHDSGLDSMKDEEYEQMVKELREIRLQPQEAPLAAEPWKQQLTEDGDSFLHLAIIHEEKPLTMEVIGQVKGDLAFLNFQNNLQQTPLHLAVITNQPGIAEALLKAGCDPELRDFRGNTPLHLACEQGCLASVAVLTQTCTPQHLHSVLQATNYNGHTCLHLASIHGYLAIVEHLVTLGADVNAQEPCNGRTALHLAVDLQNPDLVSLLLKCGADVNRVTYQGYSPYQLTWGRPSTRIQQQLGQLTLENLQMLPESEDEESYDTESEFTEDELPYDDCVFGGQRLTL

These are yes or no findings as the source states them, for the method shown. For part of these data: Binding seen in cells or lysates may run through a third protein. Some entries that bind do so weakly or less than the wild type.

In experiment [1] the target is IκBα, endogenous in PBLs (human (endogenous in PBLs)) (UniProt P25963). The experiment is described as follows: co-IP.
The target in experiment [2] is ΔNH2p65-tag mutant (in Jurkat cells) (UniProt Q04206). The experiment is described as follows: co-IP.
In experiment [3] the target is p65wt-tag (in 3T3-p65ko cells) (UniProt Q04206). The experiment is described as follows: co-IP.
Experiment [4] addresses ΔNH2p65-tag (in 3T3-p65ko cells) (UniProt Q04206). The experiment is described as follows: co-IP.
Experiment [5] addresses IκBα (in vitro translated) (UniProt P25963). As to the kind of experiment: co-IP.
In experiment [6] the target is p65 D94E;D97E-tag (in vitro translated) (UniProt Q04206). As to the kind of experiment: native gel or EMSA; 3 μg in vitro co-translated proteins (wheat germ) with 32P-labelled HIV enhancer oligonucleotide holding two κB motifs; non-denaturing 6% polyacrylamide gel; the complexes are seen bound to DNA.
The target of experiment [7] is p65wt-tag (in vitro translated) (UniProt Q04206). The experiment is described as above.

Take “ΔNH2p65 (amino-truncated, carboxy-terminal fragment of p65/RelA), endogenous (from UniProt Q04206 98-551) (domain or fragment)”: in experiment [1], the binding entry is “binds”.

As for “NF-κB1/p50, endogenous in Jurkat cells (from UniProt P19838 1-433)”, the binding entry in experiment [2] is reported as “binds”.

Regarding “endogenous p65wt (p65/RelA) in Jurkat cells (from UniProt Q04206 1-551)”, the binding result in experiment [2] is on record as “binds”.

Regarding “IκBα, endogenous in 3T3-p65ko cells (from UniProt Q9Z1E3 1-314)”, the binding entry in experiment [3] and in experiment [4] was “binds” each time.

Regarding “ΔNH2p65-tag (in vitro translated) (from UniProt Q04206 97-551) (domain or fragment)”, in experiment [5], the binding result was “binds”.

In the case of “NF-κB1/p50 (in vitro translated) (from UniProt P19838 1-433)”, the binding result in experiment [6] and in experiment [7] was “binds” in each case.

As for “IκBα, endogenous in Jurkat cells (from UniProt P25963 1-317)”, in experiment [2], the binding entry is given as “binds”.
